In patent US20130039974A1:
These are yes or no findings as the source states them, for the method shown. Some binding calls cover weakened binding; strength is not graded here.

By UniProt entry, the sequences of proteins in these tests, tags left out. Where a name states a change or a piece, a line headed by the entry shows the natural chain unless it says otherwise.
UniProt P15941: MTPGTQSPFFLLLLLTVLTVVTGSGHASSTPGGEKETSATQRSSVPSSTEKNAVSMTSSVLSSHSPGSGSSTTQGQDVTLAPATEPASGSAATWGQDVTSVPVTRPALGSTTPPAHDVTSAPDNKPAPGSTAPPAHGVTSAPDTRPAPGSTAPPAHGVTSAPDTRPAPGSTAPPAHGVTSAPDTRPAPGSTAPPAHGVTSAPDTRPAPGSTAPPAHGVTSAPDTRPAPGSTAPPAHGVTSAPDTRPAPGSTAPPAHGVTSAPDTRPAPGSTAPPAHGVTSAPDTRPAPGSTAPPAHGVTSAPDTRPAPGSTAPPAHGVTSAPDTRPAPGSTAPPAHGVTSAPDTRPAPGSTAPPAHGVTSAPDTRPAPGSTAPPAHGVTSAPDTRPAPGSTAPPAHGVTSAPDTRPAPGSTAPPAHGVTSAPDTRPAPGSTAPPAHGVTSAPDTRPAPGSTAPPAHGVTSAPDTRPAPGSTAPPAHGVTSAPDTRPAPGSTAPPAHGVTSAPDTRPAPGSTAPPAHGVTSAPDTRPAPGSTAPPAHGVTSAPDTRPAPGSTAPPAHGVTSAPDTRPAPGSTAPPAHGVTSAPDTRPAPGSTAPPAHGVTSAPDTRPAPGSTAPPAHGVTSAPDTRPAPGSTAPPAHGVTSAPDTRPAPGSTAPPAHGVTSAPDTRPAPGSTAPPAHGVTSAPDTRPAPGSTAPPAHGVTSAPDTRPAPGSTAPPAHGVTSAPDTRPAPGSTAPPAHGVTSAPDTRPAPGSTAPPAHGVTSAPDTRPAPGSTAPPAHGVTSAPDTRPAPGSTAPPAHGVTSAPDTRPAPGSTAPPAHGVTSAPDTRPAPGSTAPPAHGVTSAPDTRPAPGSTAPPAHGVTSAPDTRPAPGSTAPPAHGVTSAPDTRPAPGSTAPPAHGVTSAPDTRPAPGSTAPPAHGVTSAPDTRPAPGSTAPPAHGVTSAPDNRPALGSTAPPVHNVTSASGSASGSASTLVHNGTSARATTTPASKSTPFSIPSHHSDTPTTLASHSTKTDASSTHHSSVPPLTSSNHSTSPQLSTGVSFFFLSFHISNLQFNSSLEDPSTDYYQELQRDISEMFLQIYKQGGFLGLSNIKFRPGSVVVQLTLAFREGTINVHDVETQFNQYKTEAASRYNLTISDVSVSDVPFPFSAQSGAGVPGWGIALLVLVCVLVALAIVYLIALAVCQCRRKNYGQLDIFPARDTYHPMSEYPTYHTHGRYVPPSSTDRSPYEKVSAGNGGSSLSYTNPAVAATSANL

Biological target: MUC1-C (human) (UniProt P15941)
Experiment: Immunohistochemistry, formalin-fixed human breast carcinoma sections, CD2 1:100

B1: anti-MUC1-CD (CD2) antibody (antibody, V domains shown)
VH: EVQLQQSGAELVKPGASVKLSCTASGFNIEDHYMHWVKQRTEQGLDWIGRIDPEDGQTKYDPKFQGKATITVDTSSNTAYLQLSSLTSEDTAVYYCARNYPYALDYWGQGTSVTVSS
VL: DIVMSQSPSSLAVSVGEKVTLSCKSSQSLLYSSDQKNYLAWYQQKPGQSPKLLIYWASTRESGVPDRFTGSGSGTDFTLTISSVKAEDLAVYYCQQYYRYPFTFGSGTQLEIK
B1 was tested, and the binding was “binds”.
